# Laboratory results: article PMC7819943, “Rice protein-binding microarrays: a tool to detect cis-acting elements near promoter regions in rice”
# The chains behind the UniProt entries cited, without tags or fusion partners.
# UniProt Q0JBA9, entry or part of it: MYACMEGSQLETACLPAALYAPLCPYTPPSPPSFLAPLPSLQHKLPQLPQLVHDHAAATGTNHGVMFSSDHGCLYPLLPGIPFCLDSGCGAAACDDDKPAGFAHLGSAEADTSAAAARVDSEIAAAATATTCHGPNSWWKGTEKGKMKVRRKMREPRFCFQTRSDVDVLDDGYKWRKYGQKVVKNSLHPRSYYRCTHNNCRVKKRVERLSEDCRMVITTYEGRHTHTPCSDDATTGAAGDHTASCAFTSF
# The list shows a part of the results.
# Biological target: OsWRKY34 (Oryza sativa, UniProt Q0JBA9 1-250)
# Experiment: protein-binding microarray (RPBM); PBS, 2% BSA, 51.3 ng/ul salmon testes DNA, 50 uM zinc acetate, 200 nM TF, 25 C, 1 h; high values mean tight binding
# Settings: protein: recombinant; tags: N-terminal polyhistidine and DsRed monomer fusion (pET32a); label: CyDye5-dUTP incorporated in the synthesized complementary strand; 3' TTTTT single-stranded linker to array surface; dsDNA, one strand shown
# Summary of the method: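 Transcription factors were each fused at the N-terminus to a polyhistidine tag plus DsRed and expressed in E. coli BL21-CodonPlus before Ni–NTA purification. Binding to a double-stranded custom Agilent array was carried out with 200 nM protein at 25 °C for 1 h in PBS, 2% BSA, salmon testes DNA and 50 µM zinc acetate. The binding signal is per-feature fluorescence intensity, in arbitrary units, on an Axon 4000B scanner.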
row,Sequence,binding signal
1,ACTAATAGTGTTTCTTCATGACCTACCACTTCTTTATACGCGGAGTCACCTAGTGCAG,11100 fluorescence intensity (a.u.)
2,CATAACATACATTGGTCGTCCTGTAAGGCATGTTTCTTTTCGGAGTCACCTAGTGCAG,8620 fluorescence intensity (a.u.)
3,TCCTCTGTCATTGCCTCCTCTGTATGTGTGTGTTTCATCGCGGAGTCACCTAGTGCAG,11800 fluorescence intensity (a.u.)
4,TTTTTTAAGTTGCATAGGGGTCTTGGTTCTCCTTCTCCTCCGGAGTCACCTAGTGCAG,9710 fluorescence intensity (a.u.)
5,GCTGATGGATCTTGTAATCGTACCTGTGAAGTTTGTGCTACGGAGTCACCTAGTGCAG,9500 fluorescence intensity (a.u.)
6,ATTCTTGCGTTCAAGTTCAGTACATATACGTATCTCTCACCGGAGTCACCTAGTGCAG,9390 fluorescence intensity (a.u.)
7,CATGGTTTTACTATTGGTCCTTTACATATTAAAGGTTTCTCGGAGTCACCTAGTGCAG,8740 fluorescence intensity (a.u.)
8,ATGGTTGTTTTCATTTTGTTGGTCAGGGAATTATATGTCACGGAGTCACCTAGTGCAG,14500 fluorescence intensity (a.u.)
9,TATTTGGTCGTCGCTGGTTGTTTGTAGCACGCCAGCTCCACGGAGTCACCTAGTGCAG,8090 fluorescence intensity (a.u.)
10,ATATATATGGATTAGGTTTGGATTGGGGATCATTTGTATGCGGAGTCACCTAGTGCAG,8360 fluorescence intensity (a.u.)
11,CTGTATTCTTTGATTCTTTCAATTGTTGCCATATATTCCCCGGAGTCACCTAGTGCAG,9780 fluorescence intensity (a.u.)
12,TAACTTTGCTATTAATTAGGGGTATTTTGGTTCTTTTATACGGAGTCACCTAGTGCAG,16100 fluorescence intensity (a.u.)
13,ACCCAGGGTACGAGCTAGGCTAAATGCATTTCTTTTCTTCCGGAGTCACCTAGTGCAG,9590 fluorescence intensity (a.u.)
14,TTGCTTCTTCTTCTTCTCTCTCTCTACAACTCAAGCTAATCGGAGTCACCTAGTGCAG,9480 fluorescence intensity (a.u.)
15,AACTCGTCAATGGCCTCTAGTTCCCCTTTTCTCCTCTGTACGGAGTCACCTAGTGCAG,8410 fluorescence intensity (a.u.)
16,AGTCGTCCTCAAGCTTGACAAACCCGGTGTGATGTCTCGTCGGAGTCACCTAGTGCAG,9030 fluorescence intensity (a.u.)
17,AGGAGGGGTATTGTTGCTAATCTTGATTGTTTTACTCTTGCGGAGTCACCTAGTGCAG,17000 fluorescence intensity (a.u.)
18,TCTGGCGACCTCGCTGTCATCGTCGCCGCCGCGGTTCCCCCGGAGTCACCTAGTGCAG,8740 fluorescence intensity (a.u.)
19,ACCATCTCCTCGTCGTAGCCATCGATCACCACGCCCACCTCGGAGTCACCTAGTGCAG,10100 fluorescence intensity (a.u.)
20,TTCCTCTCTTTTTTTCCCTGATCACTTCCTTGGAAAGCAACGGAGTCACCTAGTGCAG,8340 fluorescence intensity (a.u.)
21,TTCCTGGTTGCTTCTTTTGCAGTTTTTTTTTTCCCTTCCTCGGAGTCACCTAGTGCAG,10100 fluorescence intensity (a.u.)

# A second format for some results above.
row	Sequence	binding signal
10	ATATATATGGATTAGGTTTGGATTGGGGATCATTTGTATGCGGAGTCACCTAGTGCAG	8360 fluorescence intensity (a.u.)
11	CTGTATTCTTTGATTCTTTCAATTGTTGCCATATATTCCCCGGAGTCACCTAGTGCAG	9780 fluorescence intensity (a.u.)
12	TAACTTTGCTATTAATTAGGGGTATTTTGGTTCTTTTATACGGAGTCACCTAGTGCAG	16100 fluorescence intensity (a.u.)
13	ACCCAGGGTACGAGCTAGGCTAAATGCATTTCTTTTCTTCCGGAGTCACCTAGTGCAG	9590 fluorescence intensity (a.u.)
14	TTGCTTCTTCTTCTTCTCTCTCTCTACAACTCAAGCTAATCGGAGTCACCTAGTGCAG	9480 fluorescence intensity (a.u.)
15	AACTCGTCAATGGCCTCTAGTTCCCCTTTTCTCCTCTGTACGGAGTCACCTAGTGCAG	8410 fluorescence intensity (a.u.)
16	AGTCGTCCTCAAGCTTGACAAACCCGGTGTGATGTCTCGTCGGAGTCACCTAGTGCAG	9030 fluorescence intensity (a.u.)
17	AGGAGGGGTATTGTTGCTAATCTTGATTGTTTTACTCTTGCGGAGTCACCTAGTGCAG	17000 fluorescence intensity (a.u.)
18	TCTGGCGACCTCGCTGTCATCGTCGCCGCCGCGGTTCCCCCGGAGTCACCTAGTGCAG	8740 fluorescence intensity (a.u.)
19	ACCATCTCCTCGTCGTAGCCATCGATCACCACGCCCACCTCGGAGTCACCTAGTGCAG	10100 fluorescence intensity (a.u.)
20	TTCCTCTCTTTTTTTCCCTGATCACTTCCTTGGAAAGCAACGGAGTCACCTAGTGCAG	8340 fluorescence intensity (a.u.)
21	TTCCTGGTTGCTTCTTTTGCAGTTTTTTTTTTCCCTTCCTCGGAGTCACCTAGTGCAG	10100 fluorescence intensity (a.u.)

# More entries follow.

row,Sequence,binding signal
1,ATTTTGTCTTTTTTTACGGTCAACTATAATTTTTCTGACTCGGAGTCACCTAGTGCAG,8490 fluorescence intensity (a.u.)
2,CCATCTGTGTACTCCAATCTTACCAAGATCAGATAAATATCGGAGTCACCTAGTGCAG,8790 fluorescence intensity (a.u.)
3,TTTCGATACCTTTGAATTATATACTTGTTATACTTTCCTCCGGAGTCACCTAGTGCAG,8060 fluorescence intensity (a.u.)
4,ATGGCTTTGTTAACATAACACCAGCTTTGCTGTCTCGGTTCGGAGTCACCTAGTGCAG,9110 fluorescence intensity (a.u.)
5,TAAATAATTTGTCTATCACTTTTCCTACTCTTTGCACTTACGGAGTCACCTAGTGCAG,10400 fluorescence intensity (a.u.)
6,TTTCCATCCCATTTCCATTGAAGCCAACATAATTATCAATCGGAGTCACCTAGTGCAG,8480 fluorescence intensity (a.u.)
7,CTCGTTCTTCCATTTCTCTTAATTTCTCCTCCATTATCACCGGAGTCACCTAGTGCAG,8860 fluorescence intensity (a.u.)
8,AACACAATACTACAACACTACACTAACGCTCACACACACTCGGAGTCACCTAGTGCAG,9290 fluorescence intensity (a.u.)
9,GGAGCCAAACCCACTTCCAGTAGCATACAACATCACACGGCGGAGTCACCTAGTGCAG,8680 fluorescence intensity (a.u.)
10,ATTCATTGCCGATACTTCCGCCATCTCCTCCATTGCCGTCCGGAGTCACCTAGTGCAG,9060 fluorescence intensity (a.u.)
11,CATCCACCGCAATGCTCAAGCTTCCAATGCAATTCTCTCCCGGAGTCACCTAGTGCAG,10100 fluorescence intensity (a.u.)
12,TTTTCTCACCACTCTCTCTTTCGTGTTCTCTCTCTCTTGTCGGAGTCACCTAGTGCAG,12500 fluorescence intensity (a.u.)
13,TATCCTGTTCACCTCAACGACTAATTTTATTGTGCTTATACGGAGTCACCTAGTGCAG,10400 fluorescence intensity (a.u.)
14,GGCCGCTTCTTCCCCACTGGGCCTCCGCGTTTGGTTGTTTCGGAGTCACCTAGTGCAG,8500 fluorescence intensity (a.u.)
15,AGTTGATGATACTCCTACACTACCCTGTTATTATCAAACTCGGAGTCACCTAGTGCAG,9240 fluorescence intensity (a.u.)
16,GTTTATTTTCTTTTTCCTGACTATAGTCTCCCAGGACTATCGGAGTCACCTAGTGCAG,13400 fluorescence intensity (a.u.)
17,CTTTCCTCTGTTGTGGGATTCCCCTTTCCTACGAACTCTCCGGAGTCACCTAGTGCAG,10300 fluorescence intensity (a.u.)
18,CTTCTAATTATTTGATATTAGGTCATTCTCTAATATTCACCGGAGTCACCTAGTGCAG,8450 fluorescence intensity (a.u.)
19,CGCTAGTTTTGTCTACATCATCGTCATGGAACACGACTCCCGGAGTCACCTAGTGCAG,10200 fluorescence intensity (a.u.)
20,CGAATTAGGAATCTCGCAAATTCATGCTTCATTCTGTATTCGGAGTCACCTAGTGCAG,8020 fluorescence intensity (a.u.)
21,GTTGAAAGTTGATGTGTGTTGTGTATATATACACATCTCTCGGAGTCACCTAGTGCAG,9110 fluorescence intensity (a.u.)
